Assay results taken from PubChem BioAssay AID1347423 (Functional Genomics Laboratory (NCATS/FGL), 2020).
In all, about 52,000 sequences went through this assay and about 210 (0.4%) were called active.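 Rule for the calls: active = gene whose silencing raises cell survival under the drug, median off-target-corrected z-score across its silencing RNAs 2 or more; inactive = the rest.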 The list shows a part of the results.

Experiment: Resistance to Poly (ADP-Ribose) Polymerase inhibitor: Gene Identification via Genome-wide siRNA Screen
Conditions: mouse BRCA2 R2336H ES cells, olaparib, CellTiter-Glo viability; active compounds read high
Summary of the method: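 Genome-wide siRNA screen (3 siRNAs/gene, 20 nM) in mouse ES cells carrying hypomorphic BRCA2 R2336H; olaparib 500 nM added 48 h post-transfection, CellTiter-Glo viability 72 h later. Normalized to plate-median negative control; MAD z-scores, gene median, seed-adjusted.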

Row | Sequence | z-score
1 | GCAACCAGAAAUUAGAACATT against 3830403N18Rik | inactive: -0.646
2 | GGAUCAAUCCACAGACGACTT against Dbr1 | inactive: -0.904
3 | GCCAUUAAUCCUCUCAUCUTT against Edg6 | inactive: 1.48
4 | GCCGUAUUCAUUAAUAAAGTT against Ash1l | inactive: 2.6
5 | GGGAAUAUUAGAAACCCUATT against Camkk1 | inactive: -1.07
6 | GCUGAAAUACCACUCUCCGTT against Chl1 | active: -1.28
7 | GGAAUCAACUUCAUGGUCUTT against Mrpl18 | inactive: -0.066
8 | GGAUUUGUGCACGUGAUCUTT against Adam5 | inactive: -2.59
9 | CCAAACAAUCUUACAGGAATT against Olfr415 | inactive: -1.51
10 | GGGAAUGGUUUCUUGAAAUTT against Pigk | inactive: 0.991
11 | GCACACAAGUCUCUGAAUUTT against Ipo7 | inactive: -2.07
12 | GGUUAAUCAUCUAGAUUACTT against E230019M04 | inactive: 1.74
13 | GGAAUACAGCCCUAACCUCTT against Efnb3 | inactive: -0.0343
14 | GGAAACUUACCACUACUAUTT against Tm9sf1 | inactive: -0.782
15 | GGACACAGAGAAAAAAAAATT against Apeh | inactive: 1.58
16 | CCUGCUGUUGAGCUUCACATT against Adra1b | inactive: -0.252
17 | CCUAAGAUGAUCGUAGGCUTT against Olfr1221 | inactive: -1.73
18 | GGACUGUGAACAACUUUCGTT against 1810011O10Rik | inactive: -0.585
19 | GGUGUCAGAGGUAUUUUCATT against Biklk | inactive: 2.56
20 | GGCCUAUUCAAUGGCGUGATT against Hapln3 | inactive: -0.00598
21 | CCAGUAUGGCUUAAAGACCTT against Bglap-rs1 | inactive: -0.542
22 | CCACGGUUAUGAUGACGACTT against Dyrk1b | inactive: 0.37
23 | UUUUGUUCUCAAAGGAAUATT against Olfr194 | inactive: -0.797
24 | GGAACUCCUGGAGCAGAACTT against 1110003P22Rik | inactive: 0.447
25 | CCAACAAAUUCUGGUGGGATT against D630044F24Rik | inactive: -1.13
26 | GGCUAUUUCAGGUUCAAGATT against Tnfrsf9 | inactive: 2.42

Row | Sequence | z-score
27 | CGCAAAAUAAAGAGGUGGCTT against Dhrs3 | inactive: 1.08
28 | GGAAUUUGAAUCACGUUUGTT against Hprt1 | inactive: 0.566
29 | GCACUGAAACUCCAUCCUATT against Rag1 | inactive: 1.1
30 | GGAGCAAAAACCUCUAAAUTT against Itgb1bp2 | inactive: -0.0483
31 | GGACCUAUUGAAGGCAAAATT against Nfkb1 | inactive: -1.76
32 | GGCCUUUGUGCGCACUUAUTT against Armc5 | inactive: -1.27
33 | GGAGAGAAGAUCAUUUCAATT against Ncam2 | inactive: -0.171
34 | GGUGAACUGCUUAAACAAATT against Gstt2 | inactive: -0.644
35 | CGCAAAGGAGGCUUUACUCTT against BC024806 | inactive: -0.417
36 | GGCCCUAAAUUAUACCAGCTT against Mist1 | inactive: 0.745
37 | UUCUGAUGCCCUCCAUUUUTT against Psg19 | inactive: 0.575
38 | GGAAAGGAAGUAGAUAACUTT against Arcn1 | inactive: -2.38
39 | GGAACUAAAAGGACCCAAUTT against Rbm21 | inactive: -0.0823
40 | GGUGGUUGAAAUAUGAUGATT against Klhl7 | inactive: 0.479
41 | GGACACUCAAUGAAAUCUATT against Foxp3 | inactive: 1.13
42 | GCUAGUUAAGAGGAGGCUGTT against 1700021I09Rik | inactive: -0.607
43 | GGUUUACAAAGGCACACCCTT against Prim2 | inactive: 0.651
44 | CCUUUUUGCUGAAUGUGGATT against Aard | inactive: 0.38
45 | CGUAUUCUGGUAGUGAAGGTT against Olfr1384 | inactive: -1.8
46 | GGCCUUACAUCCUGUCUUUTT against 2810038K19Rik | inactive: -2.08
47 | GGUUUUUGUUAAGGUCAAUTT against Abca16 | inactive: 1.03
48 | GGCUUUCCGUAUAACCUACTT against 1700018F24Rik | inactive: 1.09
49 | GGCUUCAGCAGAAAACUUCTT against 2810409H07Rik | inactive: 0.498
50 | CGGUUACUUGUAACAUUCCTT against Stoml3 | inactive: -0.975
51 | GGGUUUAUUAGAUUUGUCUTT against Ammecr1 | inactive: -0.609
52 | GGAGUUUCUAUUCAACAUGTT against Hoxa10 | inactive: 0.168

A few values from above.
Value of GGAGUUUCUAUUCAACAUGTT against Hoxa10 under z-score: inactive: 0.168
Value of UUCUGAUGCCCUCCAUUUUTT against Psg19 under z-score: inactive: 0.575
Value of CCUUUUUGCUGAAUGUGGATT against Aard under z-score: inactive: 0.38

Additional results follow.

Row | Sequence | z-score
53 | GCCCAAGCAGUUCAUUCAUTT against Epc2 | inactive: -1.04
54 | GGGUGUAGACAGUUCUUUGTT against Adam30 | inactive: -0.935
55 | GUCCUGGAAGAAAUGAGAATT against Ifna4 | inactive: 0.0224
56 | GGAGAAAUGUGAUGUACAATT against A630029F06 | inactive: -0.00605
57 | GGAAGAGGAGGAAAAGUCUTT against Armcx1 | inactive: -0.134
58 | GGUUCAUGAUUUUUCAAGCTT against BC058638 | inactive: 0.242
59 | GGGUGACAGACAAUGGUCUTT against Hk2 | inactive: 0.268
60 | GGCUAUGGAUGAACUGGUUTT against Zfp513 | inactive: 0.947
61 | GCUGUUUUGUCAGUCACAUTT against Olfr519 | inactive: -1.82
62 | GGAAGUGGUGCGCAAGAUGTT against 2310040C09Rik | inactive: -1.41
63 | GGCUCUGAAGACUGUGAUCTT against 1200002G13Rik | inactive: 1.6
64 | GGACUCUGUCUCCAUCUAATT against Mtap7 | inactive: -0.334
65 | GGCCUCAAAGUGUGGUUGUTT against Rhob | inactive: -1.78
66 | CCUCCUGUACGAACACGCATT against Sars2 | inactive: 2.35
67 | GGGAUAGGAUUAAACAUAGTT against Hivep2 | inactive: 0.38
68 | GGAAGCUGAGAACCUAGCUTT against Retnlg | inactive: 0.984
69 | GGAACUUCUCAAAAGGCUGTT against Bzrap1 | inactive: -0.384
70 | GCUGGUCAUCAUGUGGAAGTT against D630042P16Rik | inactive: -0.295
71 | GGACUUGGAACACCAGUACTT against Pomt1 | inactive: -0.612
72 | GGCCCUGUGUUUAUCAAAGTT against Cntn3 | inactive: -0.0888
73 | GGAAUCUGCUAUGCUUAAATT against CRAD-L | inactive: -0.983
74 | GGUAAUAAAGCAAUUGAGUTT against Mcm5 | inactive: 1.01
75 | GCUCCCAUUUCGUAGGAAATT against 9630041N07 | inactive: 1.06
76 | GCUUGAUUUCUACGUUCAUTT against Slc15a2 | inactive: 0.687
77 | GCUGGGUUCAACAUUAUAGTT against Olfr160 | inactive: 2.64
78 | GGUUUAUGAACUGACUUUGTT against Hdh | inactive: -0.446

Row | Sequence | z-score
79 | CCACUUGAACCAUGUAUUUTT against A430070M19 | inactive: -0.459
80 | GGAGAUUUAAACAGCUAGGTT against Gmip | inactive: 0.454
81 | CCAUUGGACACCUGACAGATT against Rasgef1c | inactive: -1.33
82 | GGGCUUAAGGAGCACUGCATT against Tnxb | inactive: 2.33
83 | GCAUAAGGAUAUAGCAUUATT against Ctla4 | inactive: -0.299
84 | GGUUUUAUCUCUUGUGCCCTT against Mylc2pl | inactive: 0.109
85 | GGAGAGUCGGAAUUUUUAUTT against Sgcg | inactive: -0.06
86 | GGGUUGAGCAACCGUUUCCTT against Tomm40 | inactive: -1.18
87 | GCUCCAUUAUGCCAGACUATT against Madcam1 | inactive: -2.43
88 | GGACUAGAGAAUGUUUCUATT against Rom1 | inactive: 0.946
89 | GGAUCUCCAGAGCAGAAAATT against E030049G20Rik | inactive: -0.47
90 | UUUUGCUACUAUCUUGAAGTT against Ugt1a13 | inactive: 1.8
91 | GCAAGGUGACAUCAGAAGUTT against Flot2 | inactive: 2.84
92 | GGAGUCGAUUACGUUUAUUTT against Sec14l1 | inactive: -0.213
93 | GGACUCAUUGACUUCAUCATT against Apg12l | inactive: 1.1
94 | CCUCUAAAUCCUGAAGUGUTT against AU041707 | inactive: 1.31
95 | CCAGUUUCUGUUCUUCCCUTT against 4933402J24Rik | inactive: -0.178
96 | GCAGACACUGUUCGGGAUUTT against Zfp367 | inactive: -1.16
97 | GGCCUUCUUCACCAUUGCUTT against Entpd6 | inactive: -2.11
98 | GCCGAAUCUUCAAGCCUGUTT against Ssh3 | inactive: 1.69
99 | GCACGUGAACACAAACCCGTT against Nup50 | inactive: 0.272
100 | CCAUAUUGAUCAGUUGAAGTT against Mapk14 | inactive: 0.236
101 | GCACCACUAGAGGAAACGATT against Wisp1 | inactive: 1.25
102 | GGUGAAAAUCAUCCAGCGATT against D230050A05 | inactive: -0.602
103 | GGAACUGAAGGCUCUCAUCTT against AY314008 | inactive: -0.115
104 | GCACUCACAUUGAAUUAAATT against 2410007P03Rik | inactive: -0.0616

A second format for part of the listing above.
Row,Sequence,z-score
80,GGAGAUUUAAACAGCUAGGTT against Gmip,inactive: 0.454
86,GGGUUGAGCAACCGUUUCCTT against Tomm40,inactive: -1.18
93,GGACUCAUUGACUUCAUCATT against Apg12l,inactive: 1.1
97,GGCCUUCUUCACCAUUGCUTT against Entpd6,inactive: -2.11
